US20090263375A1
No constants are given. Whether binding was seen depends on the method and setting. Binding seen in cells or lysates may run through a third protein. Some binding calls cover weakened binding; strength is not graded here.

Sequences of proteins named here, by UniProt entry; tags and fusion partners are left off.
UniProt Q99755: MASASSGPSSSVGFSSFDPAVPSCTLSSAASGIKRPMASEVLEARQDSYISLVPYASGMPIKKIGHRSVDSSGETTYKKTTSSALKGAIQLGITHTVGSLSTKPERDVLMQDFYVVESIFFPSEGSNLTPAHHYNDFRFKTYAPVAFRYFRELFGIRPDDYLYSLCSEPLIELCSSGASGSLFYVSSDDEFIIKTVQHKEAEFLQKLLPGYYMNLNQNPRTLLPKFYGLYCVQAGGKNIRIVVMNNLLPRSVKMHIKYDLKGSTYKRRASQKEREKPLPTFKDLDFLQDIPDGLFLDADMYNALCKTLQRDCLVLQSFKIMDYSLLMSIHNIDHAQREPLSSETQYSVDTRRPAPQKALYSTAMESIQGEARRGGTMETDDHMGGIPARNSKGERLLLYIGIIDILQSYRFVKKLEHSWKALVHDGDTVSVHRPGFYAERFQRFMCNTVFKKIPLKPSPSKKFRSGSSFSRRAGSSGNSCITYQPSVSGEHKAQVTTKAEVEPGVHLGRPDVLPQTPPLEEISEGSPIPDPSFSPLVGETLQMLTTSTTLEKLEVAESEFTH

Target: T1, endogenous Star-PAP (human) (UniProt Q9H6E5)
T1 sequence: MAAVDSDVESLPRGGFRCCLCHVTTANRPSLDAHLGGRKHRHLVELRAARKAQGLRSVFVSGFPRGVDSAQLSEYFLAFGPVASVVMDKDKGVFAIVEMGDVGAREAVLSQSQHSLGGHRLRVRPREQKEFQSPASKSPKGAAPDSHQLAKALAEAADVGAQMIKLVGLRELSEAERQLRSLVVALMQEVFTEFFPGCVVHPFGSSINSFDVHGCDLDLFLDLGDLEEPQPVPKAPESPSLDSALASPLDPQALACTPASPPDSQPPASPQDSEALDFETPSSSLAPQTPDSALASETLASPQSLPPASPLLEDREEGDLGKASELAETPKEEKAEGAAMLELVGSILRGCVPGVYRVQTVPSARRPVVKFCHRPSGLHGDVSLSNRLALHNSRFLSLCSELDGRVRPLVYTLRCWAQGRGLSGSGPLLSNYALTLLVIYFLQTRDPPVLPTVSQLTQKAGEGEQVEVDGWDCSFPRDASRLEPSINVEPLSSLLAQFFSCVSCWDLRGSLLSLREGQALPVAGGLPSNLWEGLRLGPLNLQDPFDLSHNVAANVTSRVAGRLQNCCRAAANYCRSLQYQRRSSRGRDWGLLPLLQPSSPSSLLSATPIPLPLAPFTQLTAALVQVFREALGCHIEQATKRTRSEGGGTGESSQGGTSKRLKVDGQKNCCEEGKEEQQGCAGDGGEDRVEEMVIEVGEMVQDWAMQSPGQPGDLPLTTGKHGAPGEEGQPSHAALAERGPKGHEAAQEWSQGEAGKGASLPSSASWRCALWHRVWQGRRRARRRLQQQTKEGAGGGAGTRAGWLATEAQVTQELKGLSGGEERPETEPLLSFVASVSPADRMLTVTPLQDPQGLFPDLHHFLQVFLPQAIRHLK
Assay: co-immunoprecipitation, western blot

binding: binds
Substance: HA-PIPKIα (from UniProt Q99755 1-562) (enzyme)
